Experimental data published in publication PMC4639896.

Biological target: T1, ABI5C153S (UniProt Q9SJN0)
T1 sequence (looked up, limits assumed): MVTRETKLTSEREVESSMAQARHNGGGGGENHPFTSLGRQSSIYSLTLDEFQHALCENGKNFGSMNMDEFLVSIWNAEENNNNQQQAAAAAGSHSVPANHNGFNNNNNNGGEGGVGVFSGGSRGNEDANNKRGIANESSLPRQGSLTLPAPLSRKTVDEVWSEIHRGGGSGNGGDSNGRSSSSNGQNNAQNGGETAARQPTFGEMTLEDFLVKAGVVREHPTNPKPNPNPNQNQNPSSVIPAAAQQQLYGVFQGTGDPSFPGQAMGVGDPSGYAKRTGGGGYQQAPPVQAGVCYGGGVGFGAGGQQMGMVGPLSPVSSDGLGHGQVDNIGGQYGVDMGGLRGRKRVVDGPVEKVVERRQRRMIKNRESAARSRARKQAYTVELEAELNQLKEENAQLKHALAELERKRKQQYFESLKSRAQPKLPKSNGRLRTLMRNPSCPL
Assay: EMSA
Settings: 10 mM Tris pH 8, 1 mM EDTA, 100 mM NaCl, 2 mM DTT (reducing), 10% glycerol, 0.5 ug poly(dI-dC), BSA, 10 ng probe, 1.5 ug protein, 30 min on ice, 6% PAGE 0.5x TBE, recombinant protein, protein details: N-terminal 6xHis (pET-28a+), label: biotin

Measured: binding result

GATCCTCTCGCGTACAATAAAGTCAGACACGTGGCATGTCACCAACGTAGCGTATGCGTA (double strand) [ABRE probe]
binds: non-reducing, 1 mM GSNO | non-reducing, no GSNO | reducing conditions (DTT)

Construct, isoform or probe ends are uncertain for at least one entry. At least one verdict rests on a figure or table, not on a statement of the authors. Tags and fusion partners may be left off the protein sequences shown.
